PubChem BioAssay AID1053208, Peter MacCallum Cancer Centre | 2014
Here is an unselected part of about 17,000 reagents. 788 of them (4.7%) count as active. 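Calls rest on z-score classes alone; an extra cut-off of viability at most 70% of control was not applied to them.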 A number with no mark means an inactive call. Not all columns of the deposit are shown.

Test: 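Find knock-downs that sensitise mouse osteosarcoma cells to doxorubicin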 (primary screen)
Cells: mouse osteosarcoma cells, early-passage culture from an engineered mouse model of fibroblastic bone tumour
Reagents: siRNA pool against mouse genes, 40 nM
Duration: about 120 h (48 h before drug, then 72 h with drug)
Treatment: doxorubicin 100 nM for 72 h, roughly 30-40% inhibitory dose
Measurement: 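Viability read as ATP luminescence after 72 h of 100 nM doxorubicin or none, duplicate wells averaged, scaled to non-targeting siRNA, then expressed as robust z-scores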
Reading the numbers: viability z-score with doxorubicin: higher = more viable cells under doxorubicin; viability z-score without drug: higher = more viable cells with knock-down alone
Active means: 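a pool counts as active when its viability z-score with doxorubicin is -2 or below and its z-score without drug lies between -2 and 2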

Dppa5a
- combined z-score class: no change with or without drug
- viability z-score with doxorubicin: 0.67
- viability z-score without drug: 0.84

Serpinf1
- combined z-score class: high cell count with and without drug
- viability z-score with doxorubicin: 2.36
- viability z-score without drug: 2.87

Rps21
- combined z-score class: low cell count with doxorubicin only (active)
- viability z-score with doxorubicin: -2.92
- viability z-score without drug: -1.18

Avpi1
- combined z-score class: no change with or without drug
- viability z-score with doxorubicin: 0
- viability z-score without drug: -0.67

Rbm7
- combined z-score class: no change with or without drug
- viability z-score with doxorubicin: 0
- viability z-score without drug: 0.51

Ptk6
- combined z-score class: no change with or without drug
- viability z-score with doxorubicin: 0.22
- viability z-score without drug: 0.17

Slc5a5
- combined z-score class: no change with or without drug
- viability z-score with doxorubicin: 0.34
- viability z-score without drug: 1.18

Otud5
- combined z-score class: no change with or without drug
- viability z-score with doxorubicin: -1.12
- viability z-score without drug: 0.51

Ap1ar
- combined z-score class: no change with or without drug
- viability z-score with doxorubicin: 1.69
- viability z-score without drug: -0.51

Nudt5
- combined z-score class: no change with or without drug
- viability z-score with doxorubicin: 1.24
- viability z-score without drug: -1.85

Gemin7
- combined z-score class: no change with or without drug
- viability z-score with doxorubicin: 0.45
- viability z-score without drug: 0.84

Pde10a
- combined z-score class: no change with or without drug
- viability z-score with doxorubicin: -0.22
- viability z-score without drug: -0.17

Ikzf1
- combined z-score class: high cell count without drug only
- viability z-score with doxorubicin: 1.12
- viability z-score without drug: 2.53

Krt222
- combined z-score class: no change with or without drug
- viability z-score with doxorubicin: -0.22
- viability z-score without drug: -0.84

Fbxo3
- combined z-score class: no change with or without drug
- viability z-score with doxorubicin: -1.8
- viability z-score without drug: -0.17

Trp53inp2
- combined z-score class: no change with or without drug
- viability z-score with doxorubicin: -0.9
- viability z-score without drug: -1.35

Ncln
- combined z-score class: no change with or without drug
- viability z-score with doxorubicin: -0.67
- viability z-score without drug: -1.52

Serpina1e
- combined z-score class: no change with or without drug
- viability z-score with doxorubicin: -0.67
- viability z-score without drug: 0.51

Zfyve26
- combined z-score class: no change with or without drug
- viability z-score with doxorubicin: -0.34
- viability z-score without drug: 0.51

Or2r11
- combined z-score class: no change with or without drug
- viability z-score with doxorubicin: -0.79
- viability z-score without drug: -0.67

Herc1
- combined z-score class: no change with or without drug
- viability z-score with doxorubicin: -0.11
- viability z-score without drug: 0.84

Dysf
- combined z-score class: no change with or without drug
- viability z-score with doxorubicin: 1.57
- viability z-score without drug: 0.84

Dgkb
- combined z-score class: no change with or without drug
- viability z-score with doxorubicin: -0.22
- viability z-score without drug: -1.52

Cmtm3
- combined z-score class: no change with or without drug
- viability z-score with doxorubicin: -1.35
- viability z-score without drug: -1.52

Lypd6
- combined z-score class: no change with or without drug
- viability z-score with doxorubicin: -1.57
- viability z-score without drug: 0.51

Fyttd1
- combined z-score class: no change with or without drug
- viability z-score with doxorubicin: 0.56
- viability z-score without drug: 1.18

Or1e1c
- combined z-score class: no change with or without drug
- viability z-score with doxorubicin: -0.22
- viability z-score without drug: -1.01

Actg2
- combined z-score class: no change with or without drug
- viability z-score with doxorubicin: -0.9
- viability z-score without drug: -0.17

Nemf
- combined z-score class: high cell count with doxorubicin only
- viability z-score with doxorubicin: 2.25
- viability z-score without drug: 1.69

Siae
- combined z-score class: high cell count without drug only
- viability z-score with doxorubicin: 0.79
- viability z-score without drug: 2.19

Akr1cl
- combined z-score class: high cell count with doxorubicin only
- viability z-score with doxorubicin: 2.81
- viability z-score without drug: 1.69

Or56a4
- combined z-score class: no change with or without drug
- viability z-score with doxorubicin: 0.45
- viability z-score without drug: -0.84

Acadl
- combined z-score class: high cell count with doxorubicin only
- viability z-score with doxorubicin: 2.02
- viability z-score without drug: 1.35

Or8k18
- combined z-score class: low cell count with doxorubicin only (active)
- viability z-score with doxorubicin: -2.02
- viability z-score without drug: -1.18

Dsp
- combined z-score class: no change with or without drug
- viability z-score with doxorubicin: 1.57
- viability z-score without drug: 0.17

Rps10
- combined z-score class: low cell count with and without drug
- viability z-score with doxorubicin: -5.62
- viability z-score without drug: -4.89

Targets listed so far whose target name starts with F or f (2):
Fbxo3
- combined z-score class: no change with or without drug
- viability z-score with doxorubicin: -1.8
- viability z-score without drug: -0.17

Fyttd1
- combined z-score class: no change with or without drug
- viability z-score with doxorubicin: 0.56
- viability z-score without drug: 1.18
